Test [1] deals with T1, SAS-6-GFP (Drosophila SAS-6 expressed in fission yeast) (Drosophila) (UniProt Q9VAC8).
T1 sequence: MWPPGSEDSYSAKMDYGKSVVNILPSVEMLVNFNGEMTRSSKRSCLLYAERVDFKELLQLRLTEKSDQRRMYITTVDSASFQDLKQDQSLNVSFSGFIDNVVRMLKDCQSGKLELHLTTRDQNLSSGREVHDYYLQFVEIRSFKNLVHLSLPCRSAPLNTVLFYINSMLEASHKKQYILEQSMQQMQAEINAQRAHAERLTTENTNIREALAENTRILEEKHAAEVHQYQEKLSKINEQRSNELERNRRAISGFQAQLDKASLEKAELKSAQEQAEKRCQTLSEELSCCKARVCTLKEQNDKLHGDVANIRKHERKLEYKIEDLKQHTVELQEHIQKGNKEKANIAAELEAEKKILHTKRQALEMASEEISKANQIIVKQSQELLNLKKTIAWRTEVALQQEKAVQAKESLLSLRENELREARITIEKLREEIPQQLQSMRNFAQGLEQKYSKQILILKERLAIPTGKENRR
The experiment in a line: co-IP.

The target in test [2] is T2, YFP-SAS-4 (Drosophila SAS-4/CPAP expressed in fission yeast) (Drosophila) (UniProt Q9VI72).
T2 sequence: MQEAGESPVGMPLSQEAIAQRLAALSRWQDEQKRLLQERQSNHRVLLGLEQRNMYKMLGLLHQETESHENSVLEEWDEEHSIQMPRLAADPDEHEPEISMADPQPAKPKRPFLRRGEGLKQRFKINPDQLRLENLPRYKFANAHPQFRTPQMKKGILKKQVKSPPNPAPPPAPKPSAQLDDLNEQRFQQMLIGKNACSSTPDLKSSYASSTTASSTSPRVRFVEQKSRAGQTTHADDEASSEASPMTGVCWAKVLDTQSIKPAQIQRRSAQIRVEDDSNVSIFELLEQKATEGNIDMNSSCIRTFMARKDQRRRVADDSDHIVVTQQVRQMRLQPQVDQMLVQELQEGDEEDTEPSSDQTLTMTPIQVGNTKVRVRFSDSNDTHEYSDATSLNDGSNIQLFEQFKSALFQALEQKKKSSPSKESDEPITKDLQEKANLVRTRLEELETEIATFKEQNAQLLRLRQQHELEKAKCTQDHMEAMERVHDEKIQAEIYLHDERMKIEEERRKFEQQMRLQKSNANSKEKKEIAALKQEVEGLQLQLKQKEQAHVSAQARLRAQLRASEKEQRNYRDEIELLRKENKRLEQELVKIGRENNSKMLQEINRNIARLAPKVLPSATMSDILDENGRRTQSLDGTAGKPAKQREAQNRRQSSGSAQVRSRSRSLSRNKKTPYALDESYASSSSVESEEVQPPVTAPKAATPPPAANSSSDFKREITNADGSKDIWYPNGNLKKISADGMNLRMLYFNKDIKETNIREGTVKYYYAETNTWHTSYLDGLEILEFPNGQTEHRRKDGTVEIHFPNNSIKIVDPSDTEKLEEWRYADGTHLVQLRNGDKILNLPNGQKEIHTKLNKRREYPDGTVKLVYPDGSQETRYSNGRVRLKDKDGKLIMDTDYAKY
The experiment in a line: co-IP.

No constants are given. Whether binding was seen depends on the method and setting. In cells and extracts the contact can be indirect. Some results given as binding are weak or reduced against the parent protein; the word gives no strength. Sequences can lack the tags named with a protein.

B1: HA-tagged Pcp1 (fission yeast pericentrin orthologue) (protein, UniProt Q92351 1-1208)
chain: MSERDFNTQSPKFKDENANSVISQSDFLGKSLKNNNDDYSDFRGSYLNDKSSFQTPLRNGSYQPKGSLEFTPLLQSSNKNSDKYNGSLGDKGSFDPNSYGLSAISKQATQEALSISQGNDSYDVSKLTDLSKNSEIDHTDGELPANAALTLREQEKVLEKVSRENFGLRIKIVCLEKRLESMAPEQIKEAVKDNVELHAERANLQLQLKRTESLLQKSEDKNFKLEEKVDYLSKVNDVEQSQNVKVFTERIRFLENALEKVQREKDSLSTEMEEDKSNKEVDYEYEIRQLQNRLDELSEELDVAQDLLTEKEDEIATLKRQIEEKENSSSAFENEENSSYVHLQEDYAILQAKCDEFADRIQVLTADLEKEKENQIMHESEASIGLTDSMQVHTLQEQLHKANEEIEFLHDQISRMNEEGKNFEDIMLQFRSLEEERDVLESKLQTLEDDNNSLRLMTSSLGNQIESLRTQNREIDEEKNHLRLLASKNSDKALAETNIRLQEVTKELETLRMKNSNDLNEIHDLREENEGLTLKIDSITKEKDRLINELEQRIKSYEVNVSELNGTIDEYRNKLKDKEETYNEVMNAFQYKDNDLRRFHESINKLQDREKELTSNLEKKNLVISSLRETVAMLEKERESIKKYLSGNAKDLDNTNLMEILNDKISVLQRQLTDVKDELDVSEEEREEAIVAGQKLSASFELMSNEKQALELKYSSLKNELINAQNLLDRREEELSELSKKLFEERKIRSGSNDDIEKNKEINVLNSELADKLAQIRHLESDKMELDKLVHHLNRGIEEANIEENAVKKRLCLLMGCDYSSVSILQIVSQIEHFVNQQIQTIRSLKQELRHDFVQFSGKKEQELSRSFEKFGLGTETKHDILAQRNRNVSEKMNDLENAAQKFFSSPDRKNGYLYPSEHTSKIEYLEKTIEDLKLALQDELKNRNLLMDDISSYNKQTTKLQEKIKWLERERSILIDELESYRSNQFNYQNNLVQDKNELEERLKEIQKELEVYNNHFMKQAELMTSNVTDESQLMLKTLREALQSKTNNIDHLSTILERNRKEYKSLLDDYNQLRARYKNLQSNTPQSTQSGQYESEIKGLSKLTKYLQSKCRREHSLRLDLAFSKKFILMQLTGYETCNKINLRMLQKIGISPDPDLSKKHIKLKSLIIVVCSIERMKRMKNEWLKQAQLKQSLQRAAAKAKTANY
As to B1, the binding result in test [1] and in test [2] was “binds” each time.

B2: mCherry-tagged full-length Pcp1 (protein, UniProt Q92351 1-1208)
chain: MSERDFNTQSPKFKDENANSVISQSDFLGKSLKNNNDDYSDFRGSYLNDKSSFQTPLRNGSYQPKGSLEFTPLLQSSNKNSDKYNGSLGDKGSFDPNSYGLSAISKQATQEALSISQGNDSYDVSKLTDLSKNSEIDHTDGELPANAALTLREQEKVLEKVSRENFGLRIKIVCLEKRLESMAPEQIKEAVKDNVELHAERANLQLQLKRTESLLQKSEDKNFKLEEKVDYLSKVNDVEQSQNVKVFTERIRFLENALEKVQREKDSLSTEMEEDKSNKEVDYEYEIRQLQNRLDELSEELDVAQDLLTEKEDEIATLKRQIEEKENSSSAFENEENSSYVHLQEDYAILQAKCDEFADRIQVLTADLEKEKENQIMHESEASIGLTDSMQVHTLQEQLHKANEEIEFLHDQISRMNEEGKNFEDIMLQFRSLEEERDVLESKLQTLEDDNNSLRLMTSSLGNQIESLRTQNREIDEEKNHLRLLASKNSDKALAETNIRLQEVTKELETLRMKNSNDLNEIHDLREENEGLTLKIDSITKEKDRLINELEQRIKSYEVNVSELNGTIDEYRNKLKDKEETYNEVMNAFQYKDNDLRRFHESINKLQDREKELTSNLEKKNLVISSLRETVAMLEKERESIKKYLSGNAKDLDNTNLMEILNDKISVLQRQLTDVKDELDVSEEEREEAIVAGQKLSASFELMSNEKQALELKYSSLKNELINAQNLLDRREEELSELSKKLFEERKIRSGSNDDIEKNKEINVLNSELADKLAQIRHLESDKMELDKLVHHLNRGIEEANIEENAVKKRLCLLMGCDYSSVSILQIVSQIEHFVNQQIQTIRSLKQELRHDFVQFSGKKEQELSRSFEKFGLGTETKHDILAQRNRNVSEKMNDLENAAQKFFSSPDRKNGYLYPSEHTSKIEYLEKTIEDLKLALQDELKNRNLLMDDISSYNKQTTKLQEKIKWLERERSILIDELESYRSNQFNYQNNLVQDKNELEERLKEIQKELEVYNNHFMKQAELMTSNVTDESQLMLKTLREALQSKTNNIDHLSTILERNRKEYKSLLDDYNQLRARYKNLQSNTPQSTQSGQYESEIKGLSKLTKYLQSKCRREHSLRLDLAFSKKFILMQLTGYETCNKINLRMLQKIGISPDPDLSKKHIKLKSLIIVVCSIERMKRMKNEWLKQAQLKQSLQRAAAKAKTANY
In the case of B2, the binding result in test [1] is “binds”.

These data come from publication doi:10.1101/313494.
